Here are results for three substances from article PMC11998485.

Chains of the proteins cited; added tags and fusions are not shown.
UniProt Q96PU5: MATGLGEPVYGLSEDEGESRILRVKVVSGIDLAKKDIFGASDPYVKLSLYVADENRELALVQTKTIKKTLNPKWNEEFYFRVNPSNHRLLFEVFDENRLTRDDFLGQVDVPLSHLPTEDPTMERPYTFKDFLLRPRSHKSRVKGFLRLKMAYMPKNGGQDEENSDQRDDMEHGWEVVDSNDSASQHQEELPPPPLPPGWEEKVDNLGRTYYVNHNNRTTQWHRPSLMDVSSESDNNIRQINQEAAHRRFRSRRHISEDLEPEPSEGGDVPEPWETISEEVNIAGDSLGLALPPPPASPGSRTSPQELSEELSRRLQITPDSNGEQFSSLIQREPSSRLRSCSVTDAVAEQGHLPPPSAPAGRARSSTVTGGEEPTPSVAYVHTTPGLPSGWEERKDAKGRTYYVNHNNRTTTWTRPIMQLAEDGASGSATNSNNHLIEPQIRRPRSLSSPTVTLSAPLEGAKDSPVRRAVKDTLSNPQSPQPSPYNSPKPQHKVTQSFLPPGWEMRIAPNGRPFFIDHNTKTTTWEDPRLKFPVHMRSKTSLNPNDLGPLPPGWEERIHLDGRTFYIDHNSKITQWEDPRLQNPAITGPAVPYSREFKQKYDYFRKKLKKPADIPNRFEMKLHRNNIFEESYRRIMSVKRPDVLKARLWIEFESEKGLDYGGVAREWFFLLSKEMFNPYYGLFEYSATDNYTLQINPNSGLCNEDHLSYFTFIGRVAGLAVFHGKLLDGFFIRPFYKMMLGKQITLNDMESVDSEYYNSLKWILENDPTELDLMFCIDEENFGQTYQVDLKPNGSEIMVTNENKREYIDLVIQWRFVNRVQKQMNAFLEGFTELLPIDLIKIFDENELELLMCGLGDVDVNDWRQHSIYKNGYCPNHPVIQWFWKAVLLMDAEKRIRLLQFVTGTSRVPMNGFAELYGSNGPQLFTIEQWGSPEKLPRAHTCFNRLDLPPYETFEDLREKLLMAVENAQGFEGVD
UniProt P10240: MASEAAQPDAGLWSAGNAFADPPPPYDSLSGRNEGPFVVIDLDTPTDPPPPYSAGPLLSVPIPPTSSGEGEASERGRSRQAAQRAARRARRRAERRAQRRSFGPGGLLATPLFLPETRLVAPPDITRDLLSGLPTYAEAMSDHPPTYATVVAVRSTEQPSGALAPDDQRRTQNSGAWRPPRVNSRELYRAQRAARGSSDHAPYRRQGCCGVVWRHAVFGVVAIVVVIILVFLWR
UniProt P46934: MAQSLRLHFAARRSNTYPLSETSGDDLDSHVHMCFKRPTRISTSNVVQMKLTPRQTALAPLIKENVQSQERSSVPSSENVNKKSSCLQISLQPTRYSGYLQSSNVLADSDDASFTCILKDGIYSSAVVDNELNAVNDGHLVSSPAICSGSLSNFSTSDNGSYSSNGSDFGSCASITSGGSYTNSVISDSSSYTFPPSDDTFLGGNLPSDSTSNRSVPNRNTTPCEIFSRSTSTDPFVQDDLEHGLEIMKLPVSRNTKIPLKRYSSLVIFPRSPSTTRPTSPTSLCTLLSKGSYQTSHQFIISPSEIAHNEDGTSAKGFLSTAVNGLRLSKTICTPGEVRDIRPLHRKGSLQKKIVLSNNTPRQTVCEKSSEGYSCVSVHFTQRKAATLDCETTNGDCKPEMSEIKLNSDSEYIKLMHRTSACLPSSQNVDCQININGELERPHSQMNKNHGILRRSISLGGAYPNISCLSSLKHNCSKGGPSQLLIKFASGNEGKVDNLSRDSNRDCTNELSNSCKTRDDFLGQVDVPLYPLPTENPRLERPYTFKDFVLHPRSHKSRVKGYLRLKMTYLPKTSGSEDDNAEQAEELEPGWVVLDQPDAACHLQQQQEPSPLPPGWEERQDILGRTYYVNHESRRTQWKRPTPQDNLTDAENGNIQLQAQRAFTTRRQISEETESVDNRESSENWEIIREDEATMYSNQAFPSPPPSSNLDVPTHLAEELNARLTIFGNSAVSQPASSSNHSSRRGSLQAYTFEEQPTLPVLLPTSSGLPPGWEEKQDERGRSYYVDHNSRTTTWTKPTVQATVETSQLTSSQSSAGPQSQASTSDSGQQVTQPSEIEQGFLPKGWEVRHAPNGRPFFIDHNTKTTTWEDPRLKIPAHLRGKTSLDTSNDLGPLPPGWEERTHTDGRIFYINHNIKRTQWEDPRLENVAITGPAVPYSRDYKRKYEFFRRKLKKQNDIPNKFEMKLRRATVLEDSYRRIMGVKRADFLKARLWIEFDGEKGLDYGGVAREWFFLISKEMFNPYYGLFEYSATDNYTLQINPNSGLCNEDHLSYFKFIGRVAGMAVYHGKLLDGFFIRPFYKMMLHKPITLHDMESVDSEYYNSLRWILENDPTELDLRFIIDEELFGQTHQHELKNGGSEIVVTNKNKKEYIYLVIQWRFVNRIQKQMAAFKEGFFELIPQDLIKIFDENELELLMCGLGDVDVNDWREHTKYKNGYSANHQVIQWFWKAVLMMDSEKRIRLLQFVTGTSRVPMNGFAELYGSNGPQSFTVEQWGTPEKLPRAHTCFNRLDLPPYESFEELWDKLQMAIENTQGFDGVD

The target of assay [1] is FLAG-tagged NEDD4L (UniProt Q96PU5). The experiment in a line: co-IP; 293T.CD1d cells transfected with UL56 and FLAG-tagged NEDD4 or NEDD4L, alone or in combination; IP with anti-UL56 and blot with anti-FLAG; reciprocal IP with anti-FLAG and blot with anti-UL56.
Assay [2] addresses endogenous NEDD4L protein (human (endogenous in HeLa.CD1d)) (UniProt Q96PU5). Description: co-IP; HeLa.CD1d cells infected with HSV-1 KOS strain at m.o.i. of 5 for 24 hours; IP of UL56 or of endogenous NEDD4L, blot for the counterpart; normal rabbit serum as control.
Assay [3] concerns the target HSV-1 UL56 protein (HSV-1) (UniProt P10240). Description: co-IP; 293T.CD1d cells transfected with UL56 and FLAG-tagged NEDD4 or NEDD4L, alone or in combination; IP with anti-UL56 and blot with anti-FLAG; reciprocal IP with anti-FLAG and blot with anti-UL56.

Results are given in words; binding and its absence hold for the method and conditions named. Binding seen in cells or lysates may run through a third protein. Some results given as binding are weak or reduced against the parent protein; the word gives no strength.

As to “HSV-1 UL56 protein (from UniProt P10240 1-234)”, the binding result in assay [1] was “binds”.

As to “HSV-1 UL56 protein (KOS strain, in infected cells) (from UniProt P10240 1-234)”, the binding result in assay [2] is on record as “binds”.

With “FLAG-tagged NEDD4 (from UniProt P46934 1-1319) (enzyme)”, in assay [3], the binding entry was “binds”.
